{
  "sequences": {"note": "Sequences of proteins named here, by UniProt entry; tags and fusion partners are left off. A change or cut given only in a name is not applied to a line headed by its entry. A line that says so, or that is headed by a name, gives the form on record, which may keep a tag or linker. Residues count along the entry.", "UniProt P00772, residues 27-266": "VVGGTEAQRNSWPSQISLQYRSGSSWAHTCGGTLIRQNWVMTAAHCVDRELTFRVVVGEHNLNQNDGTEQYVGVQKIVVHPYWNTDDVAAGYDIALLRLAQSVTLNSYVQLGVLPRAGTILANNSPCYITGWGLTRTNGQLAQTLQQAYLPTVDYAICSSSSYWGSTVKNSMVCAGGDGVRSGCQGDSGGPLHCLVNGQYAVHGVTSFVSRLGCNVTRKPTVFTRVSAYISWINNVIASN", "human alpha 1-antitrypsin P357D (P01009, form named)": "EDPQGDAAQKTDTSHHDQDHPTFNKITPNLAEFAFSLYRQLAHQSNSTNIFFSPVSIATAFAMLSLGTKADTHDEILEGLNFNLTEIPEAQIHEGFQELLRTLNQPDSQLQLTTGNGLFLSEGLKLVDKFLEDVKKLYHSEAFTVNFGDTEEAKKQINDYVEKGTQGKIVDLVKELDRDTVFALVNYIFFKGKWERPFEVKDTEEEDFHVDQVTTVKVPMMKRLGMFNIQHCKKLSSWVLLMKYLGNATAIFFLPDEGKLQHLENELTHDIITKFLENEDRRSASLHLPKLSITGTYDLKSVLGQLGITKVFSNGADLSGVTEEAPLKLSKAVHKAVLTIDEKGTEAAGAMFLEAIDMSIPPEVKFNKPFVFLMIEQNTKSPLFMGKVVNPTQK"},
  "source": "paper PMC5602671",
  "key": {"[1]": {"target": "porcine pancreatic elastase (porcine) (UniProt P00772)", "assay": "SDS-resistant complex formation on SDS-PAGE; A1AT mixed with PPE at molar ratios 1/4, 1/2, 1/1, 2/1 and 4/1, 10 min at 25°C, 20 mM Tris·HCl, 5 mM CaCl2, 0.01% Tween 80, pH 8.0; heated in reducing SDS buffer, 10% gel, Coomassie, densitometry (percent given for the 2:1 ratio); both purified"}, "[2]": {"target": "porcine pancreatic elastase (porcine) (UniProt P00772)", "assay": "titration of residual elastase activity (association equilibrium constant Ka); A1AT 0-60 nM mixed with 10 nM PPE or HNE, 30 min at 25°C, 20 mM Tris·HCl, 5 mM CaCl2, 0.01% Tween 80, pH 8.0; residual activity on a synthetic substrate; Ka by linear regression of A1AT concentration over residual activity; both purified"}},
  "note": "These are yes or no findings as the source states them, for the method shown.",
  "data": [
    {"substance": "human alpha 1-antitrypsin P357D (from UniProt P01009 25-418)", "values": [
      {"measurement": "binding", "setting": "[1]", "value": "no binding (tested: molar ratios of A1AT to PPE 1/4 to 4/1)"},
      {"measurement": "binding", "setting": "[2]", "value": "no binding (tested: A1AT up to 60 nM with 10 nM PPE)"}
    ]}
  ]
}
